Source: the supplement of paper PMC6078165
± gives the standard deviation of the averaged measurements. Values are relative to the signal before dosing, not to a vehicle control; the signal also falls without drug.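 The cancer cells are triple-negative breast cancer lines of basal-like or mesenchymal-like type, grown without fibroblasts. A drop in red signal reflects loss of mitochondrial integrity, a stand-in for apoptotic death.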

How the values were obtained:
[1] = tested on: HCC1143; experiment: relative JC-1 red fluorescence (viability) vs pre-drug, monoculture (fraction); higher = more viable cancer cells; settings: coculture fibroblast: none (monoculture)
Description: (§1)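 JC-1 labelled TNBC cells grown in monoculture (density kept equal with unlabelled cancer cells) in 384-well plates in FluoroBrite medium, treated with one of 42 anticancer drugs at 0.1, 1, 10 or 100 uM. JC-1 red fluorescence (mitochondrial integrity, surrogate of apoptotic death) was read by plate reader every 8 h for 72 h. Values are normalised to each well's pre-drug value, with background from alamethicin. The stock of one drug was tenfold lower, so its dose labels may be too high. Monoculture values are repeated alongside each fibroblast plate and are averaged here.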

[2] = tested on: MDAMB436; experiment: as above; settings: coculture fibroblast: none (monoculture)
Description: as §1

CC[C@]1(O)C[C@@H]2CN(CCc3c([nH]c4ccccc34)[C@@](C(=O)OC)(c3cc4c(cc3OC)N(C)[C@H]3[C@@](O)(C(=O)OC)[C@H](OC(C)=O)[C@]5(CC)C=CCN6CC[C@]43[C@@H]65)C2)C1 [Vinblastine]
relative JC-1 red fluorescence
Settings	8 h	16 h	24 h	32 h	40 h	48 h	56 h	64 h	72 h
[1], 0.1 µM	0.9254 ± 0.0039	0.7761 ± 0.0048	0.753 ± 0.015	0.709 ± 0.0076	0.67 ± 0.0078	0.6405 ± 0.0039	0.621 ± 0.017	0.612 ± 0.021	0.606 ± 0.021
[1], 1 µM	0.89909 ± 0.00031	0.824 ± 0.013	0.757 ± 0.028	0.709 ± 0.039	0.661 ± 0.043	0.633 ± 0.056	0.602 ± 0.059	0.59 ± 0.074	0.571 ± 0.075
[1], 10 µM	0.889 ± 0.016	0.828 ± 0.021	0.795 ± 0.023	0.742 ± 0.028	0.698 ± 0.021	0.663 ± 0.025	0.631 ± 0.029	0.607 ± 0.017	0.58 ± 0.013
[1], 100 µM	0.678 ± 0.045	0.4402 ± 0.0031	0.275 ± 0.025	0.181 ± 0.018	0.138 ± 0.0054	0.111 ± 0.008	0.0914 ± 0.0066	0.0763 ± 0.0075	0.0671 ± 0.0019
[2], 0.1 µM	0.869 ± 0.012	0.751 ± 0.014	0.783 ± 0.019	0.734 ± 0.024	0.715 ± 0.032	0.712 ± 0.042	0.712 ± 0.05	0.717 ± 0.051	0.728 ± 0.044
[2], 1 µM	0.8484 ± 0.0031	0.751 ± 0.01	0.788 ± 0.003	0.7535 ± 0.0061	0.731 ± 0.021	0.711 ± 0.021	0.699 ± 0.027	0.689 ± 0.023	0.677 ± 0.02
[2], 10 µM	0.831 ± 0.016	0.781 ± 0.02	0.778 ± 0.018	0.718 ± 0.022	0.685 ± 0.018	0.656 ± 0.024	0.617 ± 0.018	0.587 ± 0.017	0.572 ± 0.017
[2], 100 µM	0.742 ± 0.021	0.658 ± 0.036	0.554 ± 0.035	0.389 ± 0.026	0.282 ± 0.0092	0.22 ± 0.0065	0.193 ± 0.0059	0.17109 ± 0.0001	0.1531 ± 0.0004

CC(C)C[C@H](NC(=O)[C@H](Cc1ccccc1)NC(=O)c1cnccn1)B(O)O [Bortezomib]
relative JC-1 red fluorescence
Settings	8 h	16 h	24 h	32 h	40 h	48 h	56 h	64 h	72 h
[1], 0.1 µM	0.743 ± 0.011	0.581 ± 0.033	0.514 ± 0.03	0.458 ± 0.026	0.431 ± 0.033	0.451 ± 0.04	0.461 ± 0.046	0.474 ± 0.047	0.487 ± 0.047
[1], 1 µM	0.774 ± 0.027	0.585 ± 0.054	0.509 ± 0.063	0.486 ± 0.079	0.472 ± 0.079	0.459 ± 0.079	0.448 ± 0.078	0.449 ± 0.08	0.45 ± 0.075
[1], 10 µM	0.7322 ± 0.0065	0.435 ± 0.018	0.378 ± 0.013	0.3449 ± 0.0029	0.331 ± 0.0089	0.329 ± 0.0043	0.326 ± 0.0062	0.326 ± 0.0044	0.3283 ± 0.0011
[1], 100 µM	0.737 ± 0.03	0.483 ± 0.045	0.408 ± 0.064	0.355 ± 0.073	0.335 ± 0.072	0.329 ± 0.074	0.317 ± 0.071	0.318 ± 0.076	0.314 ± 0.073
[2], 0.1 µM	0.837 ± 0.042	0.818 ± 0.081	0.777 ± 0.06	0.774 ± 0.076	0.839 ± 0.09	0.812 ± 0.062	0.887 ± 0.037	0.821 ± 0.041	0.792 ± 0.068
[2], 1 µM	0.82 ± 0.0088	0.7858 ± 0.0054	0.767 ± 0.022	0.707 ± 0.049	0.657 ± 0.06	0.645 ± 0.066	0.636 ± 0.067	0.633 ± 0.07	0.627 ± 0.071
[2], 10 µM	0.9211 ± 0.0075	0.8416 ± 0.005	0.8886 ± 0.0024	0.8661 ± 0.0046	0.9002 ± 0.0077	0.925 ± 0.013	0.939 ± 0.018	0.957 ± 0.015	0.966 ± 0.014
[2], 100 µM	0.9137 ± 1.8e-05	0.8486 ± 0.0078	0.786 ± 0.013	0.744 ± 0.032	0.72 ± 0.029	0.715 ± 0.035	0.708 ± 0.036	0.706 ± 0.04	0.694 ± 0.042
